Measurements published in patent US20250376533A1.
Positions count from the first letter of the chain named. These are yes or no findings as the source states them, for the method shown. Some binding calls cover weakened binding; strength is not graded here. One block for each binder: values may come before it.

By UniProt entry, the sequences of proteins in these tests, tags left out. Where a name states a change or a piece, a line headed by the entry shows the natural chain unless it says otherwise. Chains listed by the source or under a name are the forms on record and can include a tag or linker.
cynomolgus PD-L1 antigen (ACROBiosystems) (G7PSE7, form named): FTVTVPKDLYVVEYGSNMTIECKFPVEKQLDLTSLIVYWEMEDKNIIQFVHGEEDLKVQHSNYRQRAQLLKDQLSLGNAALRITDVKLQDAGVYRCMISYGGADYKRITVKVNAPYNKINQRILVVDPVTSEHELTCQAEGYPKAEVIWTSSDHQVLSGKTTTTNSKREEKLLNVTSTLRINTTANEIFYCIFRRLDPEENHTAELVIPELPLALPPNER
cynomolgus CD40 antigen (ACROBiosystems) (G7PG38, form named): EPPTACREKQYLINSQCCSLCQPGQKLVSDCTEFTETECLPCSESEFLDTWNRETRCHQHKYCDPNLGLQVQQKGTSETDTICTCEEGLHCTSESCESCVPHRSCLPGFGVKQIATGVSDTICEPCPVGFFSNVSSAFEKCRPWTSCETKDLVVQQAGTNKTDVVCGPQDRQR

Tests used:
[1] = target: cynomolgus PD-L1 antigen (ACROBiosystems) (cynomolgus) (UniProt G7PSE7); assay: ELISA, coated antigen
[2] = target: cynomolgus CD40 antigen (ACROBiosystems) (cynomolgus) (UniProt G7PG38); assay: ELISA, coated antigen

- binding [1]: binds
B1: anti-PD-L1 monoclonal antibody 1029 (antibody, human IgG1, V domains shown)
VH: EVQLVESGGGLVQPGGSLRLSCAASGFTLDYYSKCWFRQAPGKEREWVSCIGSSDGSTYYADSVKGRFTISRDNAKNTVYLQMNSLRAEDTAVYYCAARNGGPLTIENFFDYWGQGTQVTVSS

- binding [1]: binds
B2: anti-PD-L1 monoclonal antibody 1541 (antibody, human IgG1, V domains shown)
VH: B1 VH with L29F, S33T, K34Q, G52S, D55E, A75S, R87K, A88T, N100K

- binding [1]: binds
B3: anti-PD-L1 monoclonal antibody 1102 (antibody, human IgG1, V domains shown)
VH: B1 VH with L29F, S33T, K34Q, G52S, D55E, N100K

- binding [1]: binds
B4: anti-PD-L1 monoclonal antibody 1031 (antibody, human IgG1, V domains shown)
VH: B1 VH with L29F, D30E, S33T, G52S, S53T, D55E, N100K

- binding [2]: binds
B5: anti-CD40 monoclonal antibody 1605CD (antibody, human IgG2, kappa, V domains shown)
VH: EVQLVESGGGLVQPGGSLRLSCAASGFTFSNYYMSWVRQAPGKGLEWVAFIRNKANAYTTEYAASVKGRFTISRDNSKSTLYLQMNSLRAEDTAVYYCARYGGIRVGWYFDLWGQGTLVTVSS
VL: DIQMTQSPSSLSASVGDRVTITCRASQDIRNYLNWYQQKPGKAPKLLIYYTSRLQSGVPSRFSGSGSGTDYTLTISSLQPEDFATYYCQQGQSFPWTFGGGTKVEIKR

- binding [2]: binds
B6: anti-CD40 monoclonal antibody 1655CD (antibody, human IgG2, kappa, V domains shown)
VH: B5 VH with A49G, I104L, R105K, V106I
VL: B5 VL with D28T, R30S, N31S, R53T, Q92N, S93A, F94Y

- binding [2]: binds
B7: anti-CD40 monoclonal antibody 1654CD (antibody, human IgG2, kappa, V domains shown)
VH: B5 VH with A49G, S87R, I104L, R105K
VL: B5 VL with D28S, R30S, N34A, Y50A, T51A, R53S, Q92S, F94Y

- binding [2]: binds
B8: anti-CD40 monoclonal antibody 1653CD (antibody, human IgG2, kappa, V domains shown)
VH: B5 VH with N31D, A49G, I104L, R105K, V106K
VL: B5 VL with D28G, R53S, Q92I, S93N, F94L

- binding [2]: binds
B9: anti-CD40 monoclonal antibody 1652CD (antibody, human IgG2, kappa, V domains shown)
VH: B5 VH with N31D, A49G, S79N, I104L, V106Q, L112V
VL: B5 VL with L54R, Q55D, Y87F, Q92K, S93T, F94L

- binding [2]: binds
B10: anti-CD40 monoclonal antibody 1609CD (antibody, human IgG2, kappa, V domains shown)
VH: B5 VH with A49G, A57G, I104L, R105K, V106I
VL: B5 VL with D28T, R30S, N31S, R53T, Q92N, S93A, F94Y

- binding [2]: binds
B11: anti-CD40 monoclonal antibody 1608CD (antibody, human IgG2, kappa, V domains shown)
VH: B5 VH with A49G, A57G, S87R, I104L, R105K
VL: B5 VL with D28S, R30S, N34A, Y50A, T51A, R53S, Q92S, F94Y

- binding [2]: binds
B12: anti-CD40 monoclonal antibody 1607CD (antibody, human IgG2, kappa, V domains shown)
VH: B5 VH with N31D, A49G, A57G, I104L, R105K, V106K
VL: B5 VL with D28G, R53S, Q92I, S93N, F94L

- binding [2]: binds
B13: anti-CD40 monoclonal antibody 1606CD (antibody, human IgG2, kappa, V domains shown)
VH: B5 VH with N31D, A49G, A57G, S79N, I104L, V106Q, L112V
VL: B5 VL with L54R, Q55D, Y87F, Q92K, S93T, F94L

- binding [1]: binds
- binding [2]: binds
B14: anti-PD-L1/CD40 bispecific antibody 1606 (bispecific antibody, human IgG2, kappa)
light: DIQMTQSPSSLSASVGDRVTITCRASQDIRNYLNWYQQKPGKAPKLLIYYTSRRDSGVPSRFSGSGSGTDYTLTISSLQPEDFATYFCQQGKTLPWTFGGGTKVEIKRTVAAPSVFIFPPSDEQLKSGTASVVCLLNNFYPREAKVQWKVDNALQSGNSQESVTEQDSKDSTYSLSSTLTLSKADYEKHKVYACEVTHQGLSSPVTKSFNRGEC
heavy: EVQLVESGGGLVQPGGSLRLSCAASGFTFSDYYMSWVRQAPGKGLEWVGFIRNKANGYTTEYAASVKGRFTISRDNSKNTLYLQMNSLRAEDTAVYYCARYGGLRQGWYFDVWGQGTLVTVSSASTKGPSVFPLAPCSRSTSESTAALGCLVKDYFPEPVTVSWNSGALTSGVHTFPAVLQSSGLYSLSSVVTVPSSNFGTQTYTCNVDHKPSNTKVDKTVERKCCVECPPCPAPPVAGPSVFLFPPKPKDTLMISRTPEVTCVVVDVSHEDPEVQFNWYVDGVEVHNAKTKPREEQFNSTFRVVSVLTVVHQDWLNGKEYKCKVSNKGLPAPIEKTISKTKGQPREPQVYTLPPSREEMTKNQVSLTCLVKGFYPSDIAVEWESNGQPENNYKTTPPMLDSDGSFFLYSKLTVDKSRWQQGNVFSCSVMHEALHNHYTQKSLSLSPGGGGGSGGGGSGGGGSGEVQLVESGGGLVQPGGSLRLSCAASGFTFDYYTQCWFRQAPGKEREWVSCISSSEGSTYYADSVKGRFTISRDNSKNTVYLQMNSLKTEDTAVYYCAARKGGPLTIENFFDYWGQGTQVTVSS

- binding [1]: binds
- binding [2]: binds
B15: anti-PD-L1/CD40 bispecific antibody 1652 (bispecific antibody, human IgG2, kappa)
light: B14 light
heavy: B14 heavy with G57A

- binding [1]: binds
- binding [2]: binds
B16: anti-PD-L1/CD40 bispecific antibody 1655 (bispecific antibody, human IgG2, kappa)
light: B14 light with D28T, R30S, N31S, R53T, R54L, D55Q, F87Y, K92N, T93A, L94Y
heavy: B14 heavy with D31N, G57A, N79S, R105K, Q106I, V112L

- binding [1]: binds
- binding [2]: binds
B17: anti-PD-L1/CD40 bispecific antibody 1609 (bispecific antibody, human IgG2, kappa)
light: B14 light with D28T, R30S, N31S, R53T, R54L, D55Q, F87Y, K92N, T93A, L94Y
heavy: B14 heavy with D31N, N79S, R105K, Q106I, V112L
